Reference: the supplement of paper PMC3334620
The full ranking holds about 33,000 sequences; the median of “E-score (-0.5 to 0.5)” is about -0.015, and the highest 2% start at about 0.3. The list shows a part of the results.

Target: T1, Abf1 (UniProt P14164)
T1 sequence: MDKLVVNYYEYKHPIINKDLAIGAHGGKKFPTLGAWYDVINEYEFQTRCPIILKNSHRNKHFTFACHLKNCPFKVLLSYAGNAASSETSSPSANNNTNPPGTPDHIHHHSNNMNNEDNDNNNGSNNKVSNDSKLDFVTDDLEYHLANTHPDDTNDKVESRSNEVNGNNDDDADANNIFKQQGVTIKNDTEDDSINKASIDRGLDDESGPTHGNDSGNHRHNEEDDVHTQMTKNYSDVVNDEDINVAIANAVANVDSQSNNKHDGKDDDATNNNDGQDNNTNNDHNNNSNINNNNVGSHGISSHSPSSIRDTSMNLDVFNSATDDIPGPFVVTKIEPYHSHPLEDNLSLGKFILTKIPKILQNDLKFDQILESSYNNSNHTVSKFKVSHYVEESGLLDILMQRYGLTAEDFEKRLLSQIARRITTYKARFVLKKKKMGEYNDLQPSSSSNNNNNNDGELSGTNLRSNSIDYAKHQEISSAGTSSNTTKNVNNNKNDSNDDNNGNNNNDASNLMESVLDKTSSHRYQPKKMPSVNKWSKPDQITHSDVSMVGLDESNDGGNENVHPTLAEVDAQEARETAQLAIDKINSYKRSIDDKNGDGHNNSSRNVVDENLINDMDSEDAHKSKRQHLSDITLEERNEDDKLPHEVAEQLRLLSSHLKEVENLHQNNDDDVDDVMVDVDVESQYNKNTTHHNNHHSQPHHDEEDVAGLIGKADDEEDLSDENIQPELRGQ
Assay: PBM E-score (8-mer binding enrichment) (E-score (-0.5 to 0.5)); higher = stronger / more preferred TF binding
Conditions: protein concentration: 200 nM; construct: GST-full length
Experimental: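 Universal 'all 10-mer' protein binding microarrays (Agilent AMADID 015681) probed with GST-tagged S. cerevisiae TFs (full-length or DBD) made by in vitro transcription/translation (PURExpress), about 100-200 nM. Bound TF was detected with fluorescent anti-GST. Each ungapped 8-mer (which stands for itself and its reverse complement) is scored by the PBM enrichment score (E-score), a modified Wilcoxon-Mann-Whitney statistic from -0.5 to +0.5, computed with the Universal PBM Analysis Suite. Scale: above 0.35 generally sequence-specific binding.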

Sequence | PBM E-score
CGTTCCGC | -0.0241
GCTCCCAC | -0.147
AGCTGCCA | -0.0166
CAAACTAC | 0.0778
ATTTTCAA | 0.169
ACATAGAA | 0.0504
CCAGATCG | 0.0622
CCCACTTA | -0.0867
CGCAACAG | 0.085
ACAGGGCC | -0.117
ACGGTCGA | 0.0426
CGCATGCG | -0.186
AACCGTTG | 0.103
CGTGGACA | 0.149
AAAACTGC | 0.0499
CTACAGCC | -0.269
CTAGGAAC | -0.176
CTGAATGA | 0.118
AAAGCCGT | 0.141
GCACGGGC | -0.0236
ATCTTTTA | 0.102
GACGTCAA | 0.0747
ACGCGTCT | -0.0644
CTGCGCTC | -0.237
AGTGCCCG | -0.0245

Sequence | PBM E-score
AACCCTAA | 0.00952
ATAGAAGG | 0.00397
AGCCCCTG | -0.315
GCAAGTGC | -0.309
ATGATGTG | 0.265
ATAGGTCC | 0.0302
AACGTAAA | 0.153
GTCTTTTA | -0.0526
CGTCCGAA | 0.172
AACGGCGC | 0.123
CACGGCAG | 0.227
AGATTTTC | 0.108
CGTCAGAC | -0.012
CTCGTGAA | 0.224
CCATCGGA | -0.168
GCGGTTAA | -0.26
GACCTAGC | -0.196
CACGAGAA | 0.0195
GTGAACGA | 0.0714
GCTTTTAC | -0.0448
ACTTATCT | 0.264
ACGGTTTA | 0.0908
CCGGCACA | 0.175
AGAGGCCG | -0.189
ATATAAAA | 0.185

Sequence | PBM E-score
CGATCGAG | -0.0536
GCATAACA | 0.0217
ATTGATGC | 0.0481
CAGACCGG | -0.265
CTGAATCA | -0.0743
GCATGGAC | -0.0661
AGGCCAAC | -0.118
GTTGTTTA | 0.0212
CGAGACAC | -0.00878
ATCTTGGA | 0.052
ACTCTAGA | -0.0436
CAACGACG | 0.139
AGCGTGTG | -0.101
ATAAACGA | 0.288
CCCTAATC | -0.118
ACGAAAGG | 0.276
CATGCCCA | -0.289
GCGGCCGC | 0.0297
ACGAAGTC | 0.152
ACACTCAT | 0.125
ACTTTCGA | 0.0942
GCGTACGC | -0.158
AAAAGTTA | 0.151
GGCAGTGA | -0.0277
CAAAAGAG | -0.049

Sequence | PBM E-score
AATCGGCA | -0.00998
CTCACTGA | 0.0781
CACCGGCC | -0.199
GGGCAGAC | -0.227
AATTCAAC | 0.171
CGATGGAC | 0.0838
ATATTTGG | 0.0242
GACTACGC | -0.00206
ACTATCCG | 0.172
CTCCGGAA | -0.179
TCTTTCCA | -0.0875
CCAGCCCG | -0.235
CCTACAGG | -0.369
ATAACAAG | 0.122
AAAGGTAA | 0.133
ATGGAACA | -0.0586
AGGGAAAC | -0.0375
AGAGGTAA | -0.117
GATCCGAA | 0.0965
TATGATCA | 0.309
CGTTAAAC | 0.13
CACTAAAA | 0.0572
CCCTTAGC | -0.268
AGGATCTA | -0.0972
GGAAAAGA | -0.312

Sequence | PBM E-score
ATTACGGA | 0.303
AATCCCGT | 0.14
GATGTAAA | 0.185
TCGTAACA | 0.265
GGCCGCAC | -0.0964
ACTCAGGA | -0.091
GCCGCGCA | -0.208
AAAACGTG | 0.111
AAGATCGG | -0.163
GCGGTAAC | -0.0659
AACGAAGA | 0.188
CTCCTTGC | -0.28
GGCCGAAA | -0.0983
AGAATGGG | -0.166
AAACGGTC | 0.187
CCTATGGC | -0.116
ACTCAGGG | -0.221
CGAGCGCG | -0.0408
GGACACAC | -0.103
CACTAGGG | -0.0458
AGTACAAC | 0.0712
CAATGCGG | -0.281
AAGTATAG | -0.0205
CCTAGTTC | -0.177
AATCGACA | 0.122

Some of the entries above in a different format.
Sequence	PBM E-score
CGCAACAG	0.085
CTACAGCC	-0.269
AACGGCGC	0.123
CCCTTAGC	-0.268

A second format for part of the listing above.
AACGAAGA
  PBM E-score = 0.188
CTCCTTGC
  PBM E-score = -0.28
GGCCGAAA
  PBM E-score = -0.0983

Further results follow.

Sequence | PBM E-score
ATTGCGAG | 0.00807
TCTGGGAA | 0.0332
AGCTACCT | -0.177
TATTTTCA | 0.0674
ACTCGTCG | 0.149
CTGCTCCA | -0.226
AGCTTTTG | 0.029
TCGTCGAA | 0.355
GTTCTAGA | 0.109
CACACCAA | -0.0551
GCCACCAA | 0.0672
ATGTCATA | 0.176
GAGTCTTA | -0.148
GGTCTCCA | -0.0422
CCTTGACG | -0.0078
AATTACGA | 0.186
AGCCGCGC | -0.169
AGAGCGTG | -0.00853
CCATGACC | -0.127
AATGAAGA | -0.0408
CCTTCCAG | -0.184
GGCCCGCA | -0.191
AGATGCCA | -0.0719
ATGCGAAA | 0.0768
CTTATCTA | 0.14

Sequence | PBM E-score
AGGTGGCC | -0.195
CACAAGGG | -0.242
ACACAGGT | -0.0725
ATAAGTAG | 0.216
AGTGGGAC | -0.175
AGAACATG | 0.162
GACGTCCC | 0.0416
CCAACGGG | -0.136
CGGTATCA | 0.204
CATGTATC | 0.183
GCCCTTCA | -0.0402
TGCTTAAA | 0.0395
AGGTCGGA | -0.0824
AGCGTAAT | 0.00725
TAAACCAA | 0.0491
ATTTACTC | 0.145
TCCAGTCA | -0.132
GATTTAGC | 0.145
AGGATGTG | -0.0696
ACGGGCCG | 0.147
CGGCTGCC | -0.0227
GGAGACCC | -0.289
